Laboratory results: PubChem BioAssay AID1159584 (Peter MacCallum Cancer Centre, 2016)

Test: 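Genes whose loss is lethal only together with E-cadherin loss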 (primary screen)
Cell system: human MCF10A breast epithelial cells, parental and CDH1-null
Knock-down reagent: siRNA against human genes
Measured: 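Cell viability by CellTiter-Glo ATP luminescence, each line scaled to the mean of mock wells across plates, then CDH1-null over parental ratio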
Direction: CDH1-null / parental viability ratio: higher = CDH1-null cells survive relatively better than parental
This is a random part of about 18,000 deposited reagents. Not all columns of the deposit are shown. Reagent sequences are not shown. Not stated in the record: the amount of reagent, the time to read-out.

{"target gene":"NUP155","CDH1-null / parental viability ratio":1.09}
{"target gene":"CAPN13","CDH1-null / parental viability ratio":1.07}
{"target gene":"SEC14L1","CDH1-null / parental viability ratio":0.94}
{"target gene":"ADH1A","CDH1-null / parental viability ratio":0.92}
{"target gene":"RGS11","CDH1-null / parental viability ratio":1.17}
{"target gene":"RNF4","CDH1-null / parental viability ratio":0.9}
{"target gene":"TICAM1","CDH1-null / parental viability ratio":0.96}
{"target gene":"SEMA7A","CDH1-null / parental viability ratio":1}
{"target gene":"OR2T1","CDH1-null / parental viability ratio":0.69}
{"target gene":"RAD51B","CDH1-null / parental viability ratio":0.97}
{"target gene":"KLRC1","CDH1-null / parental viability ratio":1.32}
{"target gene":"PNCK","CDH1-null / parental viability ratio":1}
{"target gene":"HAUS1","CDH1-null / parental viability ratio":1.05}
{"target gene":"SLC2A4RG","CDH1-null / parental viability ratio":0.73}
{"target gene":"FCN2","CDH1-null / parental viability ratio":1.16}
{"target gene":"PPM1L","CDH1-null / parental viability ratio":1.3}
{"target gene":"DHX29","CDH1-null / parental viability ratio":0.86}
{"target gene":"ZNF804B","CDH1-null / parental viability ratio":0.73}
{"target gene":"HLA-DRB4","CDH1-null / parental viability ratio":1.26}
{"target gene":"NDUFAF4","CDH1-null / parental viability ratio":1}
{"target gene":"DRGX","CDH1-null / parental viability ratio":1}
{"target gene":"RAB4B","CDH1-null / parental viability ratio":0.87}
{"target gene":"CYP4F2","CDH1-null / parental viability ratio":1}
{"target gene":"ARFGEF2","CDH1-null / parental viability ratio":1.23}
{"target gene":"PGLYRP1","CDH1-null / parental viability ratio":1.06}
{"target gene":"FERMT1","CDH1-null / parental viability ratio":0.69}
{"target gene":"LBH","CDH1-null / parental viability ratio":0.64}
{"target gene":"SRM","CDH1-null / parental viability ratio":0.89}
{"target gene":"PEX11G","CDH1-null / parental viability ratio":0.9}
{"target gene":"CST3","CDH1-null / parental viability ratio":1.03}
{"target gene":"FGD6","CDH1-null / parental viability ratio":0.89}
{"target gene":"UBFD1","CDH1-null / parental viability ratio":0.91}
{"target gene":"MAK16","CDH1-null / parental viability ratio":1.07}
{"target gene":"FSIP1","CDH1-null / parental viability ratio":1.03}
{"target gene":"UBE2Z","CDH1-null / parental viability ratio":1.52}
{"target gene":"NLK","CDH1-null / parental viability ratio":0.73}
{"target gene":"SDCBP","CDH1-null / parental viability ratio":1.08}
{"target gene":"KIF14","CDH1-null / parental viability ratio":0.79}
{"target gene":"BICD1","CDH1-null / parental viability ratio":1.01}
{"target gene":"FAM43A","CDH1-null / parental viability ratio":1.1}
{"target gene":"KIF16B","CDH1-null / parental viability ratio":1}
{"target gene":"ETNK1","CDH1-null / parental viability ratio":0.94}
{"target gene":"FRMPD1","CDH1-null / parental viability ratio":1.21}
{"target gene":"PYCR2","CDH1-null / parental viability ratio":1.09}
{"target gene":"VPS36","CDH1-null / parental viability ratio":0.93}
